Results published in article PMC4059726.
No constants are given. Whether binding was seen depends on the method and setting. In cells and extracts the contact can be indirect. For some assays here: Binding calls can cover weak binding; strength is not graded here. For some assays here: Sequences can lack the tags named with a protein. Values belong to the molecule of their own block, whether it stands above or below them.

Amino acid sequences for entries named in this document (tags omitted). A change or cut given only in a name is not applied to a line headed by its entry.
UniProt Q7Z5H3: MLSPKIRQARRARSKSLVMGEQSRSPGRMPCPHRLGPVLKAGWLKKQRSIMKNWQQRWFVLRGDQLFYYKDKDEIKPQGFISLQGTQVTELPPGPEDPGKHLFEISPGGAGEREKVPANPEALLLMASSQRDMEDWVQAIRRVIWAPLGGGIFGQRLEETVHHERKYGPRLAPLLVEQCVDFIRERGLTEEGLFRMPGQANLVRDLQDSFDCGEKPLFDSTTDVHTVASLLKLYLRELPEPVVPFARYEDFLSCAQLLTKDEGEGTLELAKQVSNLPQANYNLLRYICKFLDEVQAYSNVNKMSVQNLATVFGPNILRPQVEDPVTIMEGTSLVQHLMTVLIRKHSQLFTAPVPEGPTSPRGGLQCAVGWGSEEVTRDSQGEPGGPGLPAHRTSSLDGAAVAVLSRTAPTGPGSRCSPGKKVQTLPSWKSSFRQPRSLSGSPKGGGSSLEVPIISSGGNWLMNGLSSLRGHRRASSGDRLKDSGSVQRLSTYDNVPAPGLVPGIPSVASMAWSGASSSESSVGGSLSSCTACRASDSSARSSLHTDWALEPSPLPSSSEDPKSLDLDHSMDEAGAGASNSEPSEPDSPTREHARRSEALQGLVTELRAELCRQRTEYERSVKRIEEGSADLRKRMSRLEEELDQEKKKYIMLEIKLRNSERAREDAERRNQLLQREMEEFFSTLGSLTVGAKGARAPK
UniProt P21333: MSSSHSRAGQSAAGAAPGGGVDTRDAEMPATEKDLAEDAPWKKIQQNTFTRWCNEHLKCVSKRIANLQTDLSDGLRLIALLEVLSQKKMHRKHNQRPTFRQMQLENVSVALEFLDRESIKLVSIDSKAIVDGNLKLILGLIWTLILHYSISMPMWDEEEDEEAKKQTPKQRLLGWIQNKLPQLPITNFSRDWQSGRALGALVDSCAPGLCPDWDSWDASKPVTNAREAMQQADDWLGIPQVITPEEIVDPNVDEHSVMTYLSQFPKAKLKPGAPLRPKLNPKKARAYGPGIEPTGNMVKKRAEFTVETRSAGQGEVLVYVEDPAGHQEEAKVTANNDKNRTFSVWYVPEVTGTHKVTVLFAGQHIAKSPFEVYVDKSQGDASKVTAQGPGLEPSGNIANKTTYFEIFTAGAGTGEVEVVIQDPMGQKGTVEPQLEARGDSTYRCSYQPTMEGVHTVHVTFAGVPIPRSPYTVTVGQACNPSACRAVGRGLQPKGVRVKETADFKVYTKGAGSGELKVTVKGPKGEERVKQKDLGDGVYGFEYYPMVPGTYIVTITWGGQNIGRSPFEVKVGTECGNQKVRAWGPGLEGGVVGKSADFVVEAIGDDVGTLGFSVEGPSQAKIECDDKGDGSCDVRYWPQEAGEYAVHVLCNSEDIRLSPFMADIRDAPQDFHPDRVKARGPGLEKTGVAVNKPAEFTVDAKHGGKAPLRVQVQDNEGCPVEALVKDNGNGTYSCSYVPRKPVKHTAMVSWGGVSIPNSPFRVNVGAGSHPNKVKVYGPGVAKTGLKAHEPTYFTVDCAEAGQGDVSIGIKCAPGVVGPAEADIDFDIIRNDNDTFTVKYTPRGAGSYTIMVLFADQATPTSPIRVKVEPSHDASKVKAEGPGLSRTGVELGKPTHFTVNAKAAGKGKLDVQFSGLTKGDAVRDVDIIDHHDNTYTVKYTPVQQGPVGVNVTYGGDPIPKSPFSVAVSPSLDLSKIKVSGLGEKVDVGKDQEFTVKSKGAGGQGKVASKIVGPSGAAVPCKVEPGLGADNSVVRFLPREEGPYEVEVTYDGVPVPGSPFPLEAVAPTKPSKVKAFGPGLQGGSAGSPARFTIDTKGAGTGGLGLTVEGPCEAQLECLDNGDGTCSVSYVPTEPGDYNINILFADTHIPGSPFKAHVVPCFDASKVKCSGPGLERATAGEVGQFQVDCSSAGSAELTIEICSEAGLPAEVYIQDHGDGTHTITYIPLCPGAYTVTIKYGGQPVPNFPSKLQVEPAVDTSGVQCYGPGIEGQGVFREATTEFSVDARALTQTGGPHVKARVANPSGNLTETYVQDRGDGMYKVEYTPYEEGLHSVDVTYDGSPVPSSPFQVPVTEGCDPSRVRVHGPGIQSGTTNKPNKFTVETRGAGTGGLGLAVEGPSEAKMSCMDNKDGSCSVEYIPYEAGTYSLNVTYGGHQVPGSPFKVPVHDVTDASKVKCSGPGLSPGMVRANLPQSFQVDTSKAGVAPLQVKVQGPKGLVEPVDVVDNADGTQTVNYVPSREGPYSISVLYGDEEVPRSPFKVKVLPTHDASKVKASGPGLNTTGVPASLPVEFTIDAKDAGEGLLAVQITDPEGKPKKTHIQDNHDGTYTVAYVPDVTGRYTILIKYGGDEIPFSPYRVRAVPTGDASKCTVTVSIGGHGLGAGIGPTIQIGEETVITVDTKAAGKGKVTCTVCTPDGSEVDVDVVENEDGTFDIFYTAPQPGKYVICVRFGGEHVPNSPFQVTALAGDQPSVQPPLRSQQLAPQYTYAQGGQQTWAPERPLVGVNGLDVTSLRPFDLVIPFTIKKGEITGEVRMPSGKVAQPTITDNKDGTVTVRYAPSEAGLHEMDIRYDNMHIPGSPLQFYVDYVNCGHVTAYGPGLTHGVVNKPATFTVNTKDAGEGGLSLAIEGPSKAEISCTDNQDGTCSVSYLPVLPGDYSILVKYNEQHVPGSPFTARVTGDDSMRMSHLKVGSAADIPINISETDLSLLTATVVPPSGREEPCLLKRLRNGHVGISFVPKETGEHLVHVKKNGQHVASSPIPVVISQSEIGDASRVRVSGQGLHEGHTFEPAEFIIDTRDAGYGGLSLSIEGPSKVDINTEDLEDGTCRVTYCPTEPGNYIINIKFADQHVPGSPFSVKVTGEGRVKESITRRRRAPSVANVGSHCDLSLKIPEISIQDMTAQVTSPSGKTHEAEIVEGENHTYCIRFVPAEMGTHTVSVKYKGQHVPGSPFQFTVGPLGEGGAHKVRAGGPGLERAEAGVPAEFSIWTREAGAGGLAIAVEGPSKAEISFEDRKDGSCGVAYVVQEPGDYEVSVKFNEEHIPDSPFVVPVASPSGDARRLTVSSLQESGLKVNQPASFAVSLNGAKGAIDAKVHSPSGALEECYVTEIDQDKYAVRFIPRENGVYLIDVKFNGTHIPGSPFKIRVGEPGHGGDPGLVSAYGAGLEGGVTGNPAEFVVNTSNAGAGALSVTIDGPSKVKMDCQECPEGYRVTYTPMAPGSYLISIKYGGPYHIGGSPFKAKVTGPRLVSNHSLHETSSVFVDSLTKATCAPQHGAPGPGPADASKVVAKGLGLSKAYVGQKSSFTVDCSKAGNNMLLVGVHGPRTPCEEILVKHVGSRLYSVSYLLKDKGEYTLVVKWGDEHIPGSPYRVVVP

What was measured:
[1] = molecular target: HA-tagged full length ARHGAP22 (human) (UniProt Q7Z5H3); assay: co-IP; HEK cells transfected with HA-ARHGAP22 or HA-FilGAP; immunoprecipitated from cell extracts with anti-HA agarose; endogenous FLNa detected by immunoblot with anti-FLNa antibody
GST-FLNa-Repeat 23–24 = assay: pull-down; extracts of HEK cells transfected with HA-ARHGAP22 or HA-FilGAP incubated with GST-FLNa-Repeat 23–24 and glutathione-Sepharose 4B, 1 h at 4°C; 50 mM Tris-HCl pH 7.5, 100 mM NaCl, 0.1% NP-40, 5 mM MgCl2, 5 mM EGTA, 1 mM DTT; immunoblot with anti-HA; only the target purified

binding [1]: no binding
Molecule: Filamin A (from UniProt P21333 1-2647)

binding (GST-FLNa-Repeat 23–24): binds
B1: HA-FilGAP (protein, UniProt Q8N264-1 1-748)
chain: MEENNDSTENPQQGQGRQNAIKCGWLRKQGGFVKTWHTRWFVLKGDQLYYFKDEDETKPLGTIFLPGNKVSEHPCNEENPGKFLFEVVPGGDRDRMTANHESYLLMASTQNDMEDWVKSIRRVIWGPFGGGIFGQKLEDTVRYEKRYGNRLAPMLVEQCVDFIRQRGLKEEGLFRLPGQANLVKELQDAFDCGEKPSFDSNTDVHTVASLLKLYLRELPEPVIPYAKYEDFLSCAKLLSKEEEAGVKELAKQVKSLPVVNYNLLKYICRFLDEVQSYSGVNKMSVQNLATVFGPNILRPKVEDPLTIMEGTVVVQQLMSVMISKHDCLFPKDAELQSKPQDGVSNNNEIQKKATMGQLQNKENNNTKDSPSRQCSWDKSESPQRSSMNNGSPTALSGSKTNSPKNSVHKLDVSRSPPLMVKKNPAFNKGSGIVTNGSFSSSNAEGLEKTQTTPNGSLQARRSSSLKVSGTKMGTHSVQNGTVRMGILNSDTLGNPTNVRNMSWLPNGYVTLRDNKQKEQAGELGQHNRLSTYDNVHQQFSMMNLDDKQSIDSATWSTSSCEISLPENSNSCRSSTTTCPEQDFFGGNFEDPVLDGPPQDDLSHPRDYESKSDHRSVGGRSSRATSSSDNSETFVGNSSSNHSALHSLVSSLKQEMTKQKIEYESRIKSLEQRNLTLETEMMSLHDELDQERKKFTMIEIKMRNAERAKEDAEKRNDMLQKEMEQFFSTFGELTVEPRRTERGNTIWIQ
